Some targets named below: CAMK2A (UniProt Q9UQM7); CAMK2G (UniProt Q13555); CDK10 (UniProt Q15131); CDK2 (UniProt P24941); CDK3 (UniProt Q00526); CDK5 (UniProt Q00535); CDK6 (UniProt Q00534); CHEK2 (UniProt O96017); CSF1R (UniProt P07333); CSK (UniProt P41240); CSNK1A1 (UniProt P48729); CSNK1D (UniProt P48730); DDR1 (UniProt Q08345); DYRK1B (UniProt Q9Y463); DYRK2 (UniProt Q92630); EGFR (UniProt P00533); EGFR_G719S (UniProt P00533); EGFR_G719S_T790M (UniProt P00533); EGFR_L718V (UniProt P00533); EGFR_L858R (UniProt P00533).

Amino acid sequences for entries named in this document (tags omitted). A change or cut given only in a name is not applied to a line headed by its entry.
UniProt Q9UQM7, whole entry: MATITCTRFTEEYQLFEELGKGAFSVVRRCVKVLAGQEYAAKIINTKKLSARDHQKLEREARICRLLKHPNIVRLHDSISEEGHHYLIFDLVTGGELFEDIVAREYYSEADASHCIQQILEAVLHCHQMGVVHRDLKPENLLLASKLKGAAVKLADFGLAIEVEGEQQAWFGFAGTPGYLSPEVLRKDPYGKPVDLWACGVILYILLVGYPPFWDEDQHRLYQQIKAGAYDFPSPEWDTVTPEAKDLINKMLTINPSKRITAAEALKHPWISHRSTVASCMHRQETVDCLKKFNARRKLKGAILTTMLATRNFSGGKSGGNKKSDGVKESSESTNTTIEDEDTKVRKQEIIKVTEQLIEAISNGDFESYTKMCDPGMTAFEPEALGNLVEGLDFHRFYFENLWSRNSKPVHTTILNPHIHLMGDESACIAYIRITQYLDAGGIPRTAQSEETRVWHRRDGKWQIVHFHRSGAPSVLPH
UniProt Q13555: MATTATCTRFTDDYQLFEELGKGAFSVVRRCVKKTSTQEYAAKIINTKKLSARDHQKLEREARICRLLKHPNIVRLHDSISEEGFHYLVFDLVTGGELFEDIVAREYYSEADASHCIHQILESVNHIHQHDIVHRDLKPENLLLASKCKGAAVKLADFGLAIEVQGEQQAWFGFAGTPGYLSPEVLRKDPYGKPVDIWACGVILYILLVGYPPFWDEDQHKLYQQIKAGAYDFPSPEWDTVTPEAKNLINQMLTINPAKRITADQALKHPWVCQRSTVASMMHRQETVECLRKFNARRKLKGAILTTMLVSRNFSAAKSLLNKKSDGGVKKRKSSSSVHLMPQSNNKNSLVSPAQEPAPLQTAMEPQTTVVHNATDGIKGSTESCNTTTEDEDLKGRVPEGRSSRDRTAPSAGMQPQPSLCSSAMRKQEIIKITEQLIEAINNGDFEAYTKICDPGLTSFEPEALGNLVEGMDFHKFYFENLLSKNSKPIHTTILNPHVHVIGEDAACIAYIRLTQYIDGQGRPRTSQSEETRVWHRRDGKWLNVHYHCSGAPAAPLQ
UniProt Q15131: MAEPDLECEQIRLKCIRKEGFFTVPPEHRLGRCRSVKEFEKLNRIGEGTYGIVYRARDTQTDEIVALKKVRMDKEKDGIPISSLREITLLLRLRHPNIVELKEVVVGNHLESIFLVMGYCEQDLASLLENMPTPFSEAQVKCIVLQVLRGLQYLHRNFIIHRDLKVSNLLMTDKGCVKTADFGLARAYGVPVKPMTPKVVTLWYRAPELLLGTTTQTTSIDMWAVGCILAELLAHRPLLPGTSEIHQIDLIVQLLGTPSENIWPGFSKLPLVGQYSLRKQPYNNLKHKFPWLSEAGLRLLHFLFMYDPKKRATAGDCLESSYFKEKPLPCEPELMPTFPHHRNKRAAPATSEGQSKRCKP
UniProt Q00526: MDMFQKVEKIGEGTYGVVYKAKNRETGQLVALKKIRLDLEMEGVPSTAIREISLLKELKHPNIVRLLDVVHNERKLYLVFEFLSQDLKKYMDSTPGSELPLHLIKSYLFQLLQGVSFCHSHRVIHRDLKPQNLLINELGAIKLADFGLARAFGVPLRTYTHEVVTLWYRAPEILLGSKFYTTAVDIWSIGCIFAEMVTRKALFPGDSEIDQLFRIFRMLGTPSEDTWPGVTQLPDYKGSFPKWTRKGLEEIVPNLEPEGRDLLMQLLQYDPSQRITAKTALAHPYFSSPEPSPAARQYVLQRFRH
UniProt Q00535, whole entry, looked up: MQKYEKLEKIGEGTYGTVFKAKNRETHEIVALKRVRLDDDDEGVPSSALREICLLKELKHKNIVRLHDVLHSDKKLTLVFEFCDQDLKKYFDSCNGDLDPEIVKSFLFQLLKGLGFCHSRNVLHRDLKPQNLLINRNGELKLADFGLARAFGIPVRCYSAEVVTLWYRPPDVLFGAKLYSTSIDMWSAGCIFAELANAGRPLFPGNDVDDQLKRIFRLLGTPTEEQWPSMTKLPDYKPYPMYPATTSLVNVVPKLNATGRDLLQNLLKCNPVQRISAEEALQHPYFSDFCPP
UniProt Q00534, whole entry: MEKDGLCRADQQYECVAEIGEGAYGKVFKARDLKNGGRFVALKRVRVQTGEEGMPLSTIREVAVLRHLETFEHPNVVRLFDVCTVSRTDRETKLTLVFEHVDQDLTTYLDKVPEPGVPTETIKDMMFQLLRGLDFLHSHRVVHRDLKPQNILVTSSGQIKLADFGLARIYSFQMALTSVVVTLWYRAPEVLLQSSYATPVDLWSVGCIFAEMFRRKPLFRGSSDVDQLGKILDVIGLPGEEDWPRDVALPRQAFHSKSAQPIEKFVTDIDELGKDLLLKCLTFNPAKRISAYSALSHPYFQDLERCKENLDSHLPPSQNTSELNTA
UniProt O96017, whole entry: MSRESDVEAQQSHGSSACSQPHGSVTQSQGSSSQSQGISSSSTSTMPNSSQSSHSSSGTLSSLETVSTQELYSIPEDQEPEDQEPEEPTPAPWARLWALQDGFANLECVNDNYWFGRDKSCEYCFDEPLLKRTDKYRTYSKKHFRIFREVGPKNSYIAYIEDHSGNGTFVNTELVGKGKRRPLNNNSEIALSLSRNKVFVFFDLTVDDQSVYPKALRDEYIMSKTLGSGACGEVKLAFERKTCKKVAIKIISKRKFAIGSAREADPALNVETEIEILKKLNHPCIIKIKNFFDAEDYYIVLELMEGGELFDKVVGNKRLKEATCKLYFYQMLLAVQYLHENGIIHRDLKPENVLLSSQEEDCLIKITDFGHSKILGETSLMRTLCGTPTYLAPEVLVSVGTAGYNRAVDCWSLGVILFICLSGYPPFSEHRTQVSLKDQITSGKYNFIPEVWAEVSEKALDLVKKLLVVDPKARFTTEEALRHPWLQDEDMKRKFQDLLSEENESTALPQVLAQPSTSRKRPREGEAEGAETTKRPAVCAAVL
UniProt P07333, whole entry: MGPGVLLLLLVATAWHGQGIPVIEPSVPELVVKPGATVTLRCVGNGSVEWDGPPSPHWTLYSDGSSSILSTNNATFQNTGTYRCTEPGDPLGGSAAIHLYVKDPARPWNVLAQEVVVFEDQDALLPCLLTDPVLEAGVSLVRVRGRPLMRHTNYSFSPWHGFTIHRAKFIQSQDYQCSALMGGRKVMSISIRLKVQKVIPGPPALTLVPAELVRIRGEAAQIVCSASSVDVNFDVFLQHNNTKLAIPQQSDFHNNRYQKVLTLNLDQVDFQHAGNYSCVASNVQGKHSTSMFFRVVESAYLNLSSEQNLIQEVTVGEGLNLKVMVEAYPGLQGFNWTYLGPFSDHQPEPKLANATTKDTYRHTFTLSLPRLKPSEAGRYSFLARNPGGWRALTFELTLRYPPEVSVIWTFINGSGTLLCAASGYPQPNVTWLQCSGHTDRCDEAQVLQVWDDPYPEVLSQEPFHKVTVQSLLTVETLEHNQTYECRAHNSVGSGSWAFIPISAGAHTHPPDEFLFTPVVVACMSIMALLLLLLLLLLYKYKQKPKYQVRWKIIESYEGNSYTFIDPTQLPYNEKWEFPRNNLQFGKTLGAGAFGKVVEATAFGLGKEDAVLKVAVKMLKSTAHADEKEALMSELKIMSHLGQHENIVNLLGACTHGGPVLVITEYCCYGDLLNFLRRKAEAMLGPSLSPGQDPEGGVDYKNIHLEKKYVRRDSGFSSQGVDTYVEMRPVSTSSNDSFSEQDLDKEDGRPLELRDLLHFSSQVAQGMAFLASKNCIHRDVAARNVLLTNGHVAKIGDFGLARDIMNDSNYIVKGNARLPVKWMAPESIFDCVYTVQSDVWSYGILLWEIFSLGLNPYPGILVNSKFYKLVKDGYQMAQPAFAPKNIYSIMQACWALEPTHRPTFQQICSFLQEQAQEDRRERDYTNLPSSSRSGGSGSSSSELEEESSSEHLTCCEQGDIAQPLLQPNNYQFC
UniProt P41240: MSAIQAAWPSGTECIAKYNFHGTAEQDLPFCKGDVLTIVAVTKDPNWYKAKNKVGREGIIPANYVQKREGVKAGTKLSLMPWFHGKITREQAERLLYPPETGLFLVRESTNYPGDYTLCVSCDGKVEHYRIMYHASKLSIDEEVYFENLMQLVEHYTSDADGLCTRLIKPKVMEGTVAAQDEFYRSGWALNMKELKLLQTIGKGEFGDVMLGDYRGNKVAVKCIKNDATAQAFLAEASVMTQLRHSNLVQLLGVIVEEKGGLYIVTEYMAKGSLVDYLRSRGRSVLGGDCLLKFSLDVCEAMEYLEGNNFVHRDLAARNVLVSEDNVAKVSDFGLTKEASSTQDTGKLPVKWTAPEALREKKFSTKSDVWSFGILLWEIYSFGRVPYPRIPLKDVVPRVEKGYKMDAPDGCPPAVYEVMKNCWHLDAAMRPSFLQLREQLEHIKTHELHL
UniProt P48729: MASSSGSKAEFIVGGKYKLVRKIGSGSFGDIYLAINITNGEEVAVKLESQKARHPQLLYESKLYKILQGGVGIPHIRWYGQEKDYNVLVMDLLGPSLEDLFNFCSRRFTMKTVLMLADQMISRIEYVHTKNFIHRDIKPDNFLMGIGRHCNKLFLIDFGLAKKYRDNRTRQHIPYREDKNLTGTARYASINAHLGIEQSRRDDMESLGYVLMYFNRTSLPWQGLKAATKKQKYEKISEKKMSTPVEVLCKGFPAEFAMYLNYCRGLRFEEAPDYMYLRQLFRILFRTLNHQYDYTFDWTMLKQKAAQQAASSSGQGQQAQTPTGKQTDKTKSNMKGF
UniProt P48730: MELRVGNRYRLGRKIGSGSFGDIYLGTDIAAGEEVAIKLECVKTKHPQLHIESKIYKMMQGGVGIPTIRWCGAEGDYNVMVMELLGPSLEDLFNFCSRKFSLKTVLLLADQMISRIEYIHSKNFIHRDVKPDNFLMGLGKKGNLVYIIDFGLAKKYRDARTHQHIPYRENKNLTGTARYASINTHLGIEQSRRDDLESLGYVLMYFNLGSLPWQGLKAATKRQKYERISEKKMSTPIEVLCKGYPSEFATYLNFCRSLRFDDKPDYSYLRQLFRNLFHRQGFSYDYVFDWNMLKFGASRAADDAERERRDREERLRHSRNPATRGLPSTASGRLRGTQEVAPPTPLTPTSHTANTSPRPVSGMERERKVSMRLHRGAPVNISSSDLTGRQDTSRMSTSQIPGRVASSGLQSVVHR
UniProt Q08345: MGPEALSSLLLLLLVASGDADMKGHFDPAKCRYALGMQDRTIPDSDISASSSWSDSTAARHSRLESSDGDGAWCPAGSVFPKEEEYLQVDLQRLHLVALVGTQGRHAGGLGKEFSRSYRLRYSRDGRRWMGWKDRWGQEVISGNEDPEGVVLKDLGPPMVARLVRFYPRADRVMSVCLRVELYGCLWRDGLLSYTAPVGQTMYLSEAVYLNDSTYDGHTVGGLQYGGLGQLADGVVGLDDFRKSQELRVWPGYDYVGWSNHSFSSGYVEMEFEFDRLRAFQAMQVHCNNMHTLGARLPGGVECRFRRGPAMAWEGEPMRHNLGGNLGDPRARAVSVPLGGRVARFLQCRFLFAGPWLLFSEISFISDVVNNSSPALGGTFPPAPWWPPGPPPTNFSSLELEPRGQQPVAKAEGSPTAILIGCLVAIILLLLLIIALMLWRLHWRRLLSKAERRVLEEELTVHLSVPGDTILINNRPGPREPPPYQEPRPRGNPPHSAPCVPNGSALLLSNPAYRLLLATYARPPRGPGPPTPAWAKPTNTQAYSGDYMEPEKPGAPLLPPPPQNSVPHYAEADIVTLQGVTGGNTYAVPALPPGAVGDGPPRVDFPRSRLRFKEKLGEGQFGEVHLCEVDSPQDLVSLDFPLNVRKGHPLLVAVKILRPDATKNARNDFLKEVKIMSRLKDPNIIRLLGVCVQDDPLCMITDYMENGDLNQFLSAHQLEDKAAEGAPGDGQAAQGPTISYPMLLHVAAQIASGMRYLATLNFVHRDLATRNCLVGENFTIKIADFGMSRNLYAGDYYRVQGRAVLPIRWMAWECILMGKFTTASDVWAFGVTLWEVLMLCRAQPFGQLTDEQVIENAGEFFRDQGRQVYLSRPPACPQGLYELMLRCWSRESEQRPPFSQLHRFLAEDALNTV
UniProt Q92630: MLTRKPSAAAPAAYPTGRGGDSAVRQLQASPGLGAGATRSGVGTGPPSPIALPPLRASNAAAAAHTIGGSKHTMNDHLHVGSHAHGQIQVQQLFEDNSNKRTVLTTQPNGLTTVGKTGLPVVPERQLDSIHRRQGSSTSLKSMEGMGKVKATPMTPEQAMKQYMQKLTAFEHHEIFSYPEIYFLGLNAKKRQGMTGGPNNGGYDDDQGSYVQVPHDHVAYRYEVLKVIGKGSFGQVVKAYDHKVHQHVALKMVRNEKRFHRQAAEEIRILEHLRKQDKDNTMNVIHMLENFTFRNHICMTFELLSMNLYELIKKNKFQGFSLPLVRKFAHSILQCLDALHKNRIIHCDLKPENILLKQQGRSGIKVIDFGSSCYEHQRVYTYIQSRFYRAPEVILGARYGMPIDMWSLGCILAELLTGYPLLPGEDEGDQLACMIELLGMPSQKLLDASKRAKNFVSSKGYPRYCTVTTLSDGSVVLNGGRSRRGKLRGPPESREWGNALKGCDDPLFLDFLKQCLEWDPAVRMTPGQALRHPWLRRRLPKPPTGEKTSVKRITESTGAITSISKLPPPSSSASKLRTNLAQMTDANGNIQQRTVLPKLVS

Common to all, as to test: number of time points (of 5) at which kinase-Nluc abundance scored as decreased, DMSO-normalised (count); higher = more persistent destabilization
Holding throughout (details): K562; 2-18 h

Some of the results follow. Hit calls seldom repeat between salt and free forms of one compound.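 In K562 cells expressing nanoluciferase-fused kinases, luminescence was recorded at 4 h intervals between 2 and 18 h, normalized as percent of control with DMSO at 100% and a positive control at 0%. A significant (2 sigma) signal drop marks a time point as decreased. The authors' rule for a hit is not shown and takes in more than the number of time points.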

Seven compounds from the supplement of paper PMC12823440, “Inhibitors supercharge kinase turnover through native proteolytic circuits” (Nature, 2025) can be followed below.

Take `C=CC(=O)N[C@H]1C=C(C)c2c(-c3cnc4ccccc4c3)c3c(N)ncnc3n2C1` (10 µM): the “number of time points” value with CAMK2A, in the test with CAMK2G, in the test with CDK10, with CDK2, with CDK3 and in the test with CDK5 was 0 in each case. In addition, the “number of time points” value in the test with CDK6, with CHEK2, with CSF1R, with CSK, in the test with CSNK1A1 and with CSNK1D was 0 in each case. Further, the “number of time points” value with DDR1, with DYRK1B, in the test with DYRK2, in the test with EGFR, with EGFR_G719S and in the test with EGFR_G719S_T790M was 0 in each case. Besides, the “number of time points” value with EGFR_L718V and with EGFR_L858R was 0 throughout.

Take `O=Cc1cn(Cc2ccc(Cl)cc2)c2ccccc12` [Oncrasin-1] (10 µM): the “number of time points” value in the test with CAMK2A, with CAMK2G, with CDK10, in the test with CDK2, with CDK3 and in the test with CDK5 was 0 in each case. Also, the “number of time points” value with CDK6, with CHEK2, with CSF1R, in the test with CSK, with CSNK1A1 and in the test with CSNK1D was 0 each time. Moreover, the “number of time points” value with DDR1, with DYRK1B, in the test with DYRK2, with EGFR, with EGFR_G719S and with EGFR_G719S_T790M was 0 each time. The “number of time points” value with EGFR_L718V and with EGFR_L858R was 0 in each case.

For the compound `Cc1ccccc1-n1c(Cn2ncc3c(N)ncnc32)nc2cccc(C)c2c1=O` (10 µM), the “number of time points” value in the test with CAMK2A, with CAMK2G, in the test with CDK10, with CDK2, with CDK3 and with CDK5 was 0 each time. Besides, the “number of time points” value with CDK6, with CHEK2, in the test with CSF1R, with CSK, with CSNK1A1 and in the test with CSNK1D was 0 in each case. For the same compound, the “number of time points” value in the test with DDR1, with DYRK1B, with DYRK2, with EGFR, with EGFR_G719S and with EGFR_G719S_T790M was 0 each time. For the same compound, the “number of time points” value with EGFR_L718V and with EGFR_L858R was 0 throughout.

For the compound `C/C=C(/C)C(=O)O[C@H]1[C@@H]2[C@H](C)C(=O)O[C@@H]2C[C@@H](C)[C@@H]2C=CC(=O)[C@]21C` [Brevilin A] (2.5 µM), the “number of time points” value with CAMK2A, in the test with CAMK2G, with CDK10, with CDK2, with CDK3 and with CDK5 was 0 throughout. The “number of time points” value with CDK6 turned out to be 0; with CHEK2, 1; in the test with CSF1R, 0; with CSK it was 0; in the test with CSNK1A1, 0; with CSNK1D, 0. Moreover, the “number of time points” value with DDR1 was 0; in the test with DYRK1B, 2; with DYRK2, 0; with EGFR, 0; with EGFR_G719S, 0; with EGFR_G719S_T790M it was 0. Also, the “number of time points” value with EGFR_L718V and with EGFR_L858R was 0 each time.

As to `CC(=O)O[C@H]1[C@H]2[C@@H](OC(=O)Cc3ccccc3)[C@@H](C)C[C@]2(OC(C)=O)C(=O)/C(C)=C/[C@@H]2[C@H](CC[C@@]13CO3)C2(C)C` [Euphorbiasteroid] (10 µM), the “number of time points” value with CAMK2A, with CAMK2G, with CDK10, with CDK2, with CDK3 and with CDK5 was 0 each time. Also, the “number of time points” value in the test with CDK6, in the test with CHEK2, with CSF1R, with CSK, in the test with CSNK1A1 and with CSNK1D was 0 in each case. Further, the “number of time points” value with DDR1, with DYRK1B, with DYRK2, with EGFR, with EGFR_G719S and with EGFR_G719S_T790M was 0 in each case. In addition, the “number of time points” value in the test with EGFR_L718V and in the test with EGFR_L858R was 0 in each case.

For `CC(=O)OC(C)(C)/C=C/C(=O)[C@](C)(O)[C@H]1[C@H](O)C[C@@]2(C)[C@@H]3CC=C4[C@@H](C=C(O)C(=O)C4(C)C)[C@]3(C)C(=O)C[C@]12C` [Cucurbitacin E] (2.5 µM), the “number of time points” value with CAMK2A, in the test with CAMK2G, in the test with CDK10, in the test with CDK2, with CDK3 and with CDK5 was 0 throughout. The “number of time points” value with CDK6 was determined as 0; in the test with CHEK2 it was 4; with CSF1R, 4; with CSK, 0; with CSNK1A1 it was 0; with CSNK1D, 0. Further, the “number of time points” value in the test with DDR1 came out at 0; with DYRK1B, 1; with DYRK2, 4; with EGFR, 0; in the test with EGFR_G719S, 0; in the test with EGFR_G719S_T790M it was 2. Moreover, the “number of time points” value worked out at 1 in the test with EGFR_L718V and 3 in the test with EGFR_L858R.

`CC1=C[C@]23C(=O)[C@@H](C=C(CO)[C@@H](O)[C@]2(O)[C@H]1O)[C@H]1[C@@H](C[C@H]3C)C1(C)C` [Ingenol] (10 µM): the “number of time points” value with CAMK2A, with CAMK2G, in the test with CDK10, in the test with CDK2, in the test with CDK3 and in the test with CDK5 was 0 each time. The “number of time points” value in the test with CDK6, with CHEK2, in the test with CSF1R, in the test with CSK, in the test with CSNK1A1 and with CSNK1D was 0 each time. Moreover, the “number of time points” value with DDR1, with DYRK1B, with DYRK2, with EGFR, with EGFR_G719S and with EGFR_G719S_T790M was 0 in each case. For the same compound, the “number of time points” value in the test with EGFR_L718V and in the test with EGFR_L858R was 0 each time.
